Experimental data taken from paper doi:10.1101/2020.05.03.075390.
Read-outs that look alike come from different tables or passages of the source. Results are given in words; binding and its absence hold for the method and conditions named. In cells and extracts the contact can be indirect. Some entries that bind do so weakly or less than the wild type. One block for each molecule: values may come before it.

Protein sequences, listed by entry. Tags and fused reporters are not part of them. Lines headed by an entry give the natural chain unless they say otherwise; changes in a name come on top. Chains listed by the source or under a name are the forms on record and can include a tag or linker.
UniProt Q9HAU5: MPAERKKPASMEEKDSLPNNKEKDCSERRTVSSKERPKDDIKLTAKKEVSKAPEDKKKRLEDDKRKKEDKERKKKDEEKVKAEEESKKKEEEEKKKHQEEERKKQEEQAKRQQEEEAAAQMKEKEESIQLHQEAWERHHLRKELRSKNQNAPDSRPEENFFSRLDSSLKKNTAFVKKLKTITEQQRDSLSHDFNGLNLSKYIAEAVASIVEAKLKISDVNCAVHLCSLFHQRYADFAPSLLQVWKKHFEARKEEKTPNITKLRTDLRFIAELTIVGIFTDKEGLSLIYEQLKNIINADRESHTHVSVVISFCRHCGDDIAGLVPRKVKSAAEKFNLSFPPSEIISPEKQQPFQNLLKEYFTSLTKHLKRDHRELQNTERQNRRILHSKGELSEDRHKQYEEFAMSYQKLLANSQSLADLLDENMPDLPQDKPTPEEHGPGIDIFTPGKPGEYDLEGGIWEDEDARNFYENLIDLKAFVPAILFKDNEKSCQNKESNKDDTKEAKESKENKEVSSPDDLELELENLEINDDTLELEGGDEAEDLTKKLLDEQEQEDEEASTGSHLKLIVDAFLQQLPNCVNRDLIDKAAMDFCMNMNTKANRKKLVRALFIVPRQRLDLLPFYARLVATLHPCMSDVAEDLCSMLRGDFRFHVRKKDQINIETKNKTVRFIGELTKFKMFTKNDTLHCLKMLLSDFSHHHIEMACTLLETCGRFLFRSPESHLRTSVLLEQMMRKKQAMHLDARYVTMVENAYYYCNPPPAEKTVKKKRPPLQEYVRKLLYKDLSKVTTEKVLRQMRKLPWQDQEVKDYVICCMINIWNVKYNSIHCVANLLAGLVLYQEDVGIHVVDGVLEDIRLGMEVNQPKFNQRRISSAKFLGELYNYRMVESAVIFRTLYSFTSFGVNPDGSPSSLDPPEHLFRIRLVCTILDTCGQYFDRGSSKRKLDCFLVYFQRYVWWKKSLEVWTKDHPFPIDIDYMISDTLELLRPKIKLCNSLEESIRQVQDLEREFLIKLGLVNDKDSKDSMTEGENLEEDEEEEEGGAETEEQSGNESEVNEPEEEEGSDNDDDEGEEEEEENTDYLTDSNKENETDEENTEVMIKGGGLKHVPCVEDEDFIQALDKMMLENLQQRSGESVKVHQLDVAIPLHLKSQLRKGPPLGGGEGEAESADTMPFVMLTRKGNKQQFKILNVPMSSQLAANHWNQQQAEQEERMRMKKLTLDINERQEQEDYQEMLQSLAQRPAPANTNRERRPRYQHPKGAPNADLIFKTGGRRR
UniProt Q96J94: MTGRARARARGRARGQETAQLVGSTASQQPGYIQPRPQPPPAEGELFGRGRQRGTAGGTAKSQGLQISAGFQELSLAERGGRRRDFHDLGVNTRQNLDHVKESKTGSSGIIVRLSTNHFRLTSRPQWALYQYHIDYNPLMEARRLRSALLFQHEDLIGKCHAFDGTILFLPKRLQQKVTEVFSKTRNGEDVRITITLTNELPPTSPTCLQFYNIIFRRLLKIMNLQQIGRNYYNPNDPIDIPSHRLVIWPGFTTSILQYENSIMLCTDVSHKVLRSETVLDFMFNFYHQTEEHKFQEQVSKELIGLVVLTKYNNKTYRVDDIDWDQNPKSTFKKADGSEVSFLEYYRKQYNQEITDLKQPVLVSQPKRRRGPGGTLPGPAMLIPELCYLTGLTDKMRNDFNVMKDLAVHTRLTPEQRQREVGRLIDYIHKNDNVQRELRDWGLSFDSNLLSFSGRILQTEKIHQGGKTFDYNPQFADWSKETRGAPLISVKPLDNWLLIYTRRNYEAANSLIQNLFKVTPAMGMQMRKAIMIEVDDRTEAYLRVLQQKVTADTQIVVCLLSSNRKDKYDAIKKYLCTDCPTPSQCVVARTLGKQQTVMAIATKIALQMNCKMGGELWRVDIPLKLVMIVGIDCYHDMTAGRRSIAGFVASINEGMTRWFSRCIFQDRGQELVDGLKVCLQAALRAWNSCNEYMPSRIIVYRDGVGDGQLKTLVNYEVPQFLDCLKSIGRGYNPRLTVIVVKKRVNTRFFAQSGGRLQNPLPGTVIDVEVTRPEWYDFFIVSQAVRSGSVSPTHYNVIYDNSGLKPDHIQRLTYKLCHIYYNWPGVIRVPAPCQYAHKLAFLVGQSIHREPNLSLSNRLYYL
Flag-piRNA-BM-PIWIL1 (Q96J94, form named): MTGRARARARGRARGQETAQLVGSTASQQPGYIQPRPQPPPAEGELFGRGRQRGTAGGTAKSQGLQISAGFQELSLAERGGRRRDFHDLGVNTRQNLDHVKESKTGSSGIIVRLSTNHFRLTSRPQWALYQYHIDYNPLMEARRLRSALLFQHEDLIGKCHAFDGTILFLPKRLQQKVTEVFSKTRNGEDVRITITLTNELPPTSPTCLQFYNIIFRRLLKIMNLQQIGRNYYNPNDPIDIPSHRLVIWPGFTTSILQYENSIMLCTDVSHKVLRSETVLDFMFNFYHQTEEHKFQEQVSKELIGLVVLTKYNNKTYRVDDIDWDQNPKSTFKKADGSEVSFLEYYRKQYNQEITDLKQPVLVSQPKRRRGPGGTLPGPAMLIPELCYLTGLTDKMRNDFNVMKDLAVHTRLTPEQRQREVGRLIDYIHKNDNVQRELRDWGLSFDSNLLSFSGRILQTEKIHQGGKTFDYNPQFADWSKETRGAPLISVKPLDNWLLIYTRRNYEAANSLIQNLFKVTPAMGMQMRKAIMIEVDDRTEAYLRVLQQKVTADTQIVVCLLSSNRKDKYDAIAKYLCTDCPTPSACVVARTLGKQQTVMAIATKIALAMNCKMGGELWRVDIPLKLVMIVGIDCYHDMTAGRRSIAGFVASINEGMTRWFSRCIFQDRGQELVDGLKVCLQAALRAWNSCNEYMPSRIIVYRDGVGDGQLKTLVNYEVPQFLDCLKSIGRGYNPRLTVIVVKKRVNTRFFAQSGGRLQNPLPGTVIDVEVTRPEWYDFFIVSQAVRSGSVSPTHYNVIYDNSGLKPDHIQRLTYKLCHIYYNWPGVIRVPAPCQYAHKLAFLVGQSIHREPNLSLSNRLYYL
Flag-PIWIL1-ΔNΔC (Q96J94, form named): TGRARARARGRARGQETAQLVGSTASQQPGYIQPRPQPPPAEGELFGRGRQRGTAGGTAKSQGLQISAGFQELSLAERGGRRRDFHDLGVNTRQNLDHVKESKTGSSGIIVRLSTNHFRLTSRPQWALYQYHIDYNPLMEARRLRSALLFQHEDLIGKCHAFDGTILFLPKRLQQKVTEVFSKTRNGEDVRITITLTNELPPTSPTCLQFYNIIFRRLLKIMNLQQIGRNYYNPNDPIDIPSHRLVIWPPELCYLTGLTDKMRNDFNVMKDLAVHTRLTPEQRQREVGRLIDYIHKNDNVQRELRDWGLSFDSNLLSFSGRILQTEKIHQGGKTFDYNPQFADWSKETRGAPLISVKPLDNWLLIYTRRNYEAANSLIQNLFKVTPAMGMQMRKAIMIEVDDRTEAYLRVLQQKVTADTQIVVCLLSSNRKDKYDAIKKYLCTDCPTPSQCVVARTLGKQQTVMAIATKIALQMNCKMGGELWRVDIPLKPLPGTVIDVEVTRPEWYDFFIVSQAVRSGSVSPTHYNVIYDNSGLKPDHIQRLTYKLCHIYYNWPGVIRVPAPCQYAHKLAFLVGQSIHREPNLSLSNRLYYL

What was measured:
Experiment in all cases: co-IP
[1] = biological target: UPF2 (human (endogenous in SNU-1)) (UniProt Q9HAU5)
[2] = biological target: T1, phosphorylated UPF1 (human (endogenous in SNU-1)) (UniProt Q92900)
T1 sequence (chain, phosphorylated; recognised by an anti-phospho-Upf1 (Ser1127) antibody): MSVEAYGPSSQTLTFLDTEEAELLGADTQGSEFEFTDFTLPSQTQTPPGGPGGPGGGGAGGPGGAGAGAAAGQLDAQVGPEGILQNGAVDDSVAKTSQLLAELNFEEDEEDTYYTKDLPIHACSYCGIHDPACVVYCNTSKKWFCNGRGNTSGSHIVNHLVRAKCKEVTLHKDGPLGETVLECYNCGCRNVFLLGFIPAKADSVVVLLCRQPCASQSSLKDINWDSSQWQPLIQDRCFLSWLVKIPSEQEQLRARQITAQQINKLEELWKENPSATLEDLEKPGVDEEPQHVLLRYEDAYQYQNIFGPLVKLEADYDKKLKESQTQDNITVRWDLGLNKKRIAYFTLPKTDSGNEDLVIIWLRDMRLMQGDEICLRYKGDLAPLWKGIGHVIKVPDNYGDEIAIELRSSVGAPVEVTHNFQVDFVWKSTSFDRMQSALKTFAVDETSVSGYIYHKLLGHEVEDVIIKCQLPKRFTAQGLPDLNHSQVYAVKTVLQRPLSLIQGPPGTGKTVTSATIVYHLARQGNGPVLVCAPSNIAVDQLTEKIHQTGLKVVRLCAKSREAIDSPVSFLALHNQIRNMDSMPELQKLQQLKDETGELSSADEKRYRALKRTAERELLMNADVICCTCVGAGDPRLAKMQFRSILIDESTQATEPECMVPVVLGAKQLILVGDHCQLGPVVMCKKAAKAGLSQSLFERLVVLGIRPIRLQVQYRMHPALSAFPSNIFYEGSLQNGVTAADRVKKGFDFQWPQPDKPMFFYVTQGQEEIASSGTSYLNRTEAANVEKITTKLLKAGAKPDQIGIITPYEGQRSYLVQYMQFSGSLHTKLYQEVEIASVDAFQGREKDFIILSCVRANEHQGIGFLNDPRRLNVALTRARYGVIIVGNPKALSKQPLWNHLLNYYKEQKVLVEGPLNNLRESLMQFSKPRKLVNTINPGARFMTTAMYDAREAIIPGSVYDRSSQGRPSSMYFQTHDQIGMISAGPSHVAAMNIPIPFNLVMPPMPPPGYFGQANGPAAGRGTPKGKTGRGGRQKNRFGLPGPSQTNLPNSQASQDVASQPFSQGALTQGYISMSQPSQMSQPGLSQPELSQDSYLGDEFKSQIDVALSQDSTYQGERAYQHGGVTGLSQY

[3] = biological target: T2, UPF1 (Up-Frameshift-1) (human (endogenous in SNU-1)) (UniProt Q92900)
T2 sequence: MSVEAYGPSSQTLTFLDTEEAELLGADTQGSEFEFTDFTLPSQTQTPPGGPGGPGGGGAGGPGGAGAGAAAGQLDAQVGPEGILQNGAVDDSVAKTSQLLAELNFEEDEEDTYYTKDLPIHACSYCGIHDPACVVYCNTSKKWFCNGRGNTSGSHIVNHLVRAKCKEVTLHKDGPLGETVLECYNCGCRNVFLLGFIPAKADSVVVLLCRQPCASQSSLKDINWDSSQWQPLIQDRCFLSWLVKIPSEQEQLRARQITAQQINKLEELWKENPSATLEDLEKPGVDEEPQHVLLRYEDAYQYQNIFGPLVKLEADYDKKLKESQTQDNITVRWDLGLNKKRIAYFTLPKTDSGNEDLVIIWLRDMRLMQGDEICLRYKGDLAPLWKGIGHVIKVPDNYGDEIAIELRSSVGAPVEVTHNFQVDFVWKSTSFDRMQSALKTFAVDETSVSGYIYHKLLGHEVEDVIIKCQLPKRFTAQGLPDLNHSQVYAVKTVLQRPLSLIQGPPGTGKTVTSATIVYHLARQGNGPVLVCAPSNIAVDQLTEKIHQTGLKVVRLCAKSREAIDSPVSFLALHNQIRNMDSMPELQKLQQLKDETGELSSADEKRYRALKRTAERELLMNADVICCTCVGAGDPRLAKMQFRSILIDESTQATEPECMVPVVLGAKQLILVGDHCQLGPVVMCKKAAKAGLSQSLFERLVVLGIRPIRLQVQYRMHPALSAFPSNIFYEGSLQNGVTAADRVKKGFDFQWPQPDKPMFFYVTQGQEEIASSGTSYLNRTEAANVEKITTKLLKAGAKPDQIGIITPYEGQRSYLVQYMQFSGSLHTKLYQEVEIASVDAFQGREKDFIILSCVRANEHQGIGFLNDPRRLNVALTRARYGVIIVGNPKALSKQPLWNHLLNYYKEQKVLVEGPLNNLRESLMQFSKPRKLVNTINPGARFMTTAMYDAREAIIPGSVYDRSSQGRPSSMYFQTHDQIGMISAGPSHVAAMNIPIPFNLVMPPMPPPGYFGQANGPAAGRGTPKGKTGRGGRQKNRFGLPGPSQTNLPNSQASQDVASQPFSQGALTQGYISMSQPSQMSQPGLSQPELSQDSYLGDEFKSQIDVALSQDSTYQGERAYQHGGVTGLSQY

[4] = biological target: PIWIL1 (PIWI-Like 1) (human (endogenous in SNU-1 and AGS)) (UniProt Q96J94)
[5] = biological target: PIWIL1 (PIWI-Like 1) (human (endogenous in SNU-1 and AGS)) (UniProt Q96J94); remark: listed apart in the source
Flag-PIWIL1-FL (human) = Flag-PIWIL1-FL (human) (UniProt Q96J94)
[6] = biological target: Flag-piRNA-BM-PIWIL1 (human) (UniProt Q96J94)
Flag-PIWIL1-ΔNΔC (human) = Flag-PIWIL1-ΔNΔC (human) (UniProt Q96J94)

Molecule: PIWIL1 (PIWI-Like 1) (from UniProt Q96J94 1-861)
- binding [1]: binds
- binding [2]: binds
- binding [3]: binds

B1: UPF1 (Up-Frameshift-1) (protein, UniProt Q92900 1-1129)
chain: MSVEAYGPSSQTLTFLDTEEAELLGADTQGSEFEFTDFTLPSQTQTPPGGPGGPGGGGAGGPGGAGAGAAAGQLDAQVGPEGILQNGAVDDSVAKTSQLLAELNFEEDEEDTYYTKDLPIHACSYCGIHDPACVVYCNTSKKWFCNGRGNTSGSHIVNHLVRAKCKEVTLHKDGPLGETVLECYNCGCRNVFLLGFIPAKADSVVVLLCRQPCASQSSLKDINWDSSQWQPLIQDRCFLSWLVKIPSEQEQLRARQITAQQINKLEELWKENPSATLEDLEKPGVDEEPQHVLLRYEDAYQYQNIFGPLVKLEADYDKKLKESQTQDNITVRWDLGLNKKRIAYFTLPKTDSGNEDLVIIWLRDMRLMQGDEICLRYKGDLAPLWKGIGHVIKVPDNYGDEIAIELRSSVGAPVEVTHNFQVDFVWKSTSFDRMQSALKTFAVDETSVSGYIYHKLLGHEVEDVIIKCQLPKRFTAQGLPDLNHSQVYAVKTVLQRPLSLIQGPPGTGKTVTSATIVYHLARQGNGPVLVCAPSNIAVDQLTEKIHQTGLKVVRLCAKSREAIDSPVSFLALHNQIRNMDSMPELQKLQQLKDETGELSSADEKRYRALKRTAERELLMNADVICCTCVGAGDPRLAKMQFRSILIDESTQATEPECMVPVVLGAKQLILVGDHCQLGPVVMCKKAAKAGLSQSLFERLVVLGIRPIRLQVQYRMHPALSAFPSNIFYEGSLQNGVTAADRVKKGFDFQWPQPDKPMFFYVTQGQEEIASSGTSYLNRTEAANVEKITTKLLKAGAKPDQIGIITPYEGQRSYLVQYMQFSGSLHTKLYQEVEIASVDAFQGREKDFIILSCVRANEHQGIGFLNDPRRLNVALTRARYGVIIVGNPKALSKQPLWNHLLNYYKEQKVLVEGPLNNLRESLMQFSKPRKLVNTINPGARFMTTAMYDAREAIIPGSVYDRSSQGRPSSMYFQTHDQIGMISAGPSHVAAMNIPIPFNLVMPPMPPPGYFGQANGPAAGRGTPKGKTGRGGRQKNRFGLPGPSQTNLPNSQASQDVASQPFSQGALTQGYISMSQPSQMSQPGLSQPELSQDSYLGDEFKSQIDVALSQDSTYQGERAYQHGGVTGLSQY
- binding [5]: binds
- binding (Flag-PIWIL1-FL (human)): binds
- binding [6]: binds
- binding (Flag-PIWIL1-ΔNΔC (human)): no binding

B2: phosphorylated UPF1 (protein, UniProt Q92900 1-1129)
chain: MSVEAYGPSSQTLTFLDTEEAELLGADTQGSEFEFTDFTLPSQTQTPPGGPGGPGGGGAGGPGGAGAGAAAGQLDAQVGPEGILQNGAVDDSVAKTSQLLAELNFEEDEEDTYYTKDLPIHACSYCGIHDPACVVYCNTSKKWFCNGRGNTSGSHIVNHLVRAKCKEVTLHKDGPLGETVLECYNCGCRNVFLLGFIPAKADSVVVLLCRQPCASQSSLKDINWDSSQWQPLIQDRCFLSWLVKIPSEQEQLRARQITAQQINKLEELWKENPSATLEDLEKPGVDEEPQHVLLRYEDAYQYQNIFGPLVKLEADYDKKLKESQTQDNITVRWDLGLNKKRIAYFTLPKTDSGNEDLVIIWLRDMRLMQGDEICLRYKGDLAPLWKGIGHVIKVPDNYGDEIAIELRSSVGAPVEVTHNFQVDFVWKSTSFDRMQSALKTFAVDETSVSGYIYHKLLGHEVEDVIIKCQLPKRFTAQGLPDLNHSQVYAVKTVLQRPLSLIQGPPGTGKTVTSATIVYHLARQGNGPVLVCAPSNIAVDQLTEKIHQTGLKVVRLCAKSREAIDSPVSFLALHNQIRNMDSMPELQKLQQLKDETGELSSADEKRYRALKRTAERELLMNADVICCTCVGAGDPRLAKMQFRSILIDESTQATEPECMVPVVLGAKQLILVGDHCQLGPVVMCKKAAKAGLSQSLFERLVVLGIRPIRLQVQYRMHPALSAFPSNIFYEGSLQNGVTAADRVKKGFDFQWPQPDKPMFFYVTQGQEEIASSGTSYLNRTEAANVEKITTKLLKAGAKPDQIGIITPYEGQRSYLVQYMQFSGSLHTKLYQEVEIASVDAFQGREKDFIILSCVRANEHQGIGFLNDPRRLNVALTRARYGVIIVGNPKALSKQPLWNHLLNYYKEQKVLVEGPLNNLRESLMQFSKPRKLVNTINPGARFMTTAMYDAREAIIPGSVYDRSSQGRPSSMYFQTHDQIGMISAGPSHVAAMNIPIPFNLVMPPMPPPGYFGQANGPAAGRGTPKGKTGRGGRQKNRFGLPGPSQTNLPNSQASQDVASQPFSQGALTQGYISMSQPSQMSQPGLSQPELSQDSYLGDEFKSQIDVALSQDSTYQGERAYQHGGVTGLSQY
modifications: phosphorylated; recognised by an anti-phospho-Upf1 (Ser1127) antibody
- binding [5]: binds

Further lines, results first:

- binding [4]: binds
Molecule: SMG1 (from UniProt Q96Q15 1-3661)

- binding [4]: binds
Molecule: UPF2 (from UniProt Q9HAU5 1-1272)
